This passage reports binding results from patent publication US20160264674A1 (ADURO BIOTECH HOLDINGS EUROPE B V, published 2016).

T1: FLAG-tagged human APRIL (human, UniProt O75888 105-250, limits assumed)
T1 construct: also called FLAG-tagged APRIL; FLAG-APRIL; not shown: FLAG tag
T1 sequence (looked up): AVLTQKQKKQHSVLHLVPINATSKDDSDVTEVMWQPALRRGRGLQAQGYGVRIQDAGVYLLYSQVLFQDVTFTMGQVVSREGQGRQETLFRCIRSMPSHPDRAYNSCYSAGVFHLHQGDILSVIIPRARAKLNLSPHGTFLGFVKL

B1: VH14_1G.VL15 (antibody, human IgG4 S228P, kappa, V domains shown)
VH: QVQLVQSGAEVKKPGASVKVSCKASGYTFTSYVMHWVRQAPGQGLEWMGYINPYNDAPKYNEKFKGKATMTSDTSASTAYMELSSLRSDDTAVYYCARGLGYALYYAMDYWGQGTTVTVSS
VL: DIVMTQSPSTLSASVGDRVTITCKASQNVGNNVAWYQQKPGKAPKLLISSASNRDSGVPSRFSGSGSGTEFTLTISSLQPDDFATYFCQQYNIYPFTFGQGTKLEIKR
notes: VH14_1 with R67K and V68A; Humanized IgG4 (S241P, Kabat) with human kappa; also called 14_1G.15; 14_1 G.15
B2: VH14_1.VL15 (antibody, human IgG4, V domains shown)
VH: B1 VH with K67R, A68V
VL: DIVMTQSPSTLSASVGDRVTITCKASQNVGNNVAWYQQKPGKAPKLLISSASNRDSGVPSRFSGSGSGTEFTLTISSLQPDDFATYFCQQYNIYPFTFGQGTKLEIK
notes: VH14 with R72S; rest is human IgG4 (S241P, Kabat) and human kappa; also called 14_1.15; antibody 14_1.15
B3: VH14.VL15 (antibody, human IgG4 S228P, kappa, V domains shown)
VH: B1 VH with K67R, A68V, S72R
VL: B1 VL
notes: Humanized IgG4 (S241P, Kabat) with human kappa, from HEK293T
B4: VH11.VL15 (antibody, human IgG4 S228P, kappa, V domains shown)
VH: B1 VH with G44R, K67R, A68V, M70I, S72R, D89E
VL: B1 VL
notes: Humanized IgG4 (S241P, Kabat) with human kappa, from HEK293T; also called 11.15
B5: VH13.VL15 (antibody, human IgG4 S228P, kappa, V domains shown)
VH: B1 VH with K67R, A68V, S72R, A76T, A79V, D89E, T116M
VL: B1 VL
notes: Humanized IgG4 (S241P, Kabat) with human kappa, from HEK293T; also called 13.15
B6: VH12.VL15 (antibody, human IgG4 S228P, kappa, V domains shown)
VH: B1 VH with K67R, A68V, S72R, A76I, S85R
VL: B1 VL
notes: Humanized IgG4 (S241P, Kabat) with human kappa, from HEK293T; also called 12.15

Positions count from the first letter of the chain named. In names and notes the source's numbering stands. No constants are given. Whether binding was seen depends on the method and setting. Some results given as binding are weak or reduced against the parent protein; the word gives no strength.

For the first experiment, the target named is T1, FLAG-tagged human APRIL. Nature of the experiment: APRIL ELISA and BCMA-Fc competition ELISA. For orientation: In an ELISA, binding on a coated surface is turned into a signal by an enzyme label.
Take B1: the binding entry is listed as “binds”. For B2, the binding entry is listed as “binds”.

The next experiment addresses T1, FLAG-tagged human APRIL. In words: ELISA on FLAG-tagged human APRIL.
In the case of B3, the binding result is reported as “binds”. The same measure, in the same setting: the same measure for B4: “binds”; for B5: “binds”; for B6: “binds”.
